Results reported in article PMC11559061.
These are yes or no findings as the source states them, for the method shown. In cells and extracts the contact can be indirect. Some binding calls cover weakened binding; strength is not graded here. Sequences can lack the tags named with a protein.

Target: S. aureus Fpa fused to the small (SmBIT) or large (LgBIT) portion of luciferase (S. aureus) (UniProt Q2FHW8)
Assay: split reporter; two-plasmid (pLgBIT and pSmBIT) split luciferase in living S. aureus Δfpa::tetM fur* cells, TSB, 37°C, luminescence read after 30 minutes

binding: binds
B1: S. aureus Fpa fused to the small (SmBIT) or large (LgBIT) portion of luciferase (protein, UniProt Q2FHW8 1-91)
chain: MAKQATMKNAALKQLTKDADEILHLIKVQLDNLTLPSCPLYEEVLDTQMFGLQKEVDFAVKLGLVDREDGKQIMLRLEKELSKLHEAFTLV
